From the supplement of paper PMC10727501
This is one part of the list. This data set is noisy: repeats of one test often differ as much as different tests do.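 Free-swimming zebrafish larvae were assessed for O-bend response probability to dark flashes (naive: first five; training: remaining flashes across four 60-flash blocks; test: later 60-flash block) and for OMR turning toward alternating leftward/rightward LED motion. Six treated larvae were compared against sixty 0.1% DMSO controls; hits required |SSMD|≥2.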

Columns and labels:
Conditions in all cases: 10 µM; pre-incubation: 30-90 min
[1] = tested on: Danio rerio larvae (5 dpf, TLF); assay: OMR-Perf (SSMD vs DMSO vehicle); higher = higher than vehicle (e.g. higher dark-flash O-bend response probability, or better optomotor performance)
[2] = tested on: Danio rerio larvae (5 dpf, TLF); assay: Prob-Test (SSMD vs DMSO vehicle); higher = higher than vehicle (e.g. higher dark-flash O-bend response probability, or better optomotor performance)
[3] = tested on: Danio rerio larvae (5 dpf, TLF); assay: Prob-Naive (SSMD vs DMSO vehicle); higher = higher than vehicle (e.g. higher dark-flash O-bend response probability, or better optomotor performance)
[4] = tested on: Danio rerio larvae (5 dpf, TLF); assay: Prob-Train (SSMD vs DMSO vehicle); higher = higher than vehicle (e.g. higher dark-flash O-bend response probability, or better optomotor performance)

| SMILES | OMR-Perf [1] | Prob-Test [2] | Prob-Naive [3] | Prob-Train [4] |
| --- | --- | --- | --- | --- |
| CCN(CC)C(=O)/C(C#N)=C/c1cc(O)c(O)c([N+](=O)[O-])c1 [Entacapone] | -0.236 | -0.0896 | -0.445 | -0.0674 |
| COc1ccc2cc1Oc1ccc(cc1)C[C@@H]1c3c(cc4c(c3Oc3cc5c(cc3OC)CCN(C)[C@H]5C2)OCO4)CCN1C [Cepharanthine] | -0.604 | 0.0509 | -0.0588 | -1.17 |
| S=c1nc[nH]c2nc[nH]c12 [Mercaptopurine (6-MP)] | -0.243 | -0.0525 | 0.459 | 0.0382 |
| COc1ccc(C(C)=O)c(O)c1 [Paeonol] | -0.517 | -0.387 | 0.516 | -0.115 |
| COc1ccc(Cn2ccc3ccc(C(=O)NO)cc32)cc1 | -0.104 | -0.973 | 0.245 | -0.8 |
| N[C@H]1CONC1=O [D-Cycloserine] | -0.459 | -0.0442 | 0.131 | -0.196 |
| COc1cc2ncc(-c3ccccc3)nc2cc1OC [Tyrphostin AG 1296] | 0.131 | -1.07 | -2.36 | -2.02 |
| CC(CC(=O)O)(CC(=O)O)C(=O)O.CCN(CC)CCOCCOC(=O)C(CC)(CC)c1ccccc1 [Oxeladin Citrate] | -0.142 | 0.0488 | 0.61 | 0.571 |
| CC(=O)OCC(CCn1cnc2cnc(N)nc21)COC(C)=O [Famciclovir] | -0.418 | 0.34 | 0.208 | 0.372 |
| CC(C)NCC(O)c1cc(O)cc(O)c1.CC(C)NCC(O)c1cc(O)cc(O)c1.O=S(=O)(O)O (stereo not given) [Metaproterenol Sulfate] | -0.33 | -0.0368 | 0.0912 | 0.424 |
| N#Cc1ccc2[nH]c(O)c(-c3ccc(CN4CCOCC4)cn3)c2c1 | 0.0942 | -0.482 | -0.607 | -0.422 |
| NCC[C@H](O)C(=O)N[C@@H]1C[C@H](N)[C@@H](O[C@H]2O[C@H](CN)[C@@H](O)[C@H](O)[C@H]2O)[C@H](O)[C@H]1O[C@H]1O[C@H](CO)[C@@H](O)[C@H](N)[C@H]1O [Amikacin hydrate] | 0.0184 | 0.336 | -0.142 | 0.204 |
| COc1cc2ncnc(Nc3cccc(Cl)c3)c2cc1OC [AG-1478 (Tyrphostin AG-1478)] | -0.667 | -0.658 | -0.283 | -0.535 |
| CCCS(=O)(=O)Nc1ccc(F)c(C(=O)c2c[nH]c3ncc(Cl)cc23)c1F | 0.213 | -0.283 | -0.362 | -0.606 |
| COc1ccccc1N1CCN(CC(O)COc2cccc3ccccc23)CC1.Cl.Cl (stereo not given) [Naftopidil DiHCl] | -0.953 | -2.43 | -4.32 | -3.04 |
| O=C(O)C1=CO[C@@H](O[C@@H]2O[C@H](CO)[C@@H](O)[C@H](O)[C@@H]2O)[C@@H]2C(CO)=CC[C@H]12 [Geniposidic acid] | 0.0732 | 0.277 | -0.365 | 0.39 |
| CC(C)N(C[C@H]1O[C@@H](n2cnc3c(N)ncnc32)[C@H](O)[C@@H]1O)[C@H]1C[C@@H](CCc2nc3cc(C(C)(C)C)ccc3[nH]2)C1 | -0.41 | 0.575 | -0.0813 | 0.381 |
| Cc1ncc([N+](=O)[O-])n1CC(C)O (stereo not given) [Secnidazole] | -0.665 | -0.142 | 0 | 0.22 |
| CC(C)C[C@H](NC(=O)[C@H](Cc1ccccc1)NC(=O)c1cnccn1)B(O)O [Bortezomib (PS-341)] | -0.37 | -0.474 | 0.456 | 0.381 |
| CN/C(=C\[N+](=O)[O-])NCCSCc1ccc(CN(C)C)o1.Cl [Ranitidine] | -0.0502 | -0.198 | 0.0131 | -0.142 |
| O=C([O-])CC(O)(CC(=O)[O-])C(=O)[O-].[Li+].[Li+].[Li+] [Lithium Citrate] | -0.314 | 0.0877 | 0.444 | -0.0239 |
| COc1ccc(-c2nc(N3CCOCC3)c3sc(CN(C)c4ncc(C(=O)NO)cn4)cc3n2)cn1 | -0.215 | 0.106 | 0.319 | 0.125 |
| Cl.c1ccc(C2CN3CCSC3=N2)cc1 (stereo not given) [Tetramisole HCl] | 0.0536 | 0.379 | -0.461 | 0.205 |
| CN1CCC(=C2c3ccccc3C=Cc3ccccc32)CC1.Cl [Cyproheptadine HCl] | 0.292 | -1.53 | -1.02 | -1.15 |
| NC(=O)CC[C@H](N)C(=O)O [L-Glutamine] | -0.139 | -0.762 | -0.142 | -0.333 |

By substructure: the compounds so far containing a cyano group.

| SMILES | OMR-Perf [1] | Prob-Test [2] | Prob-Naive [3] | Prob-Train [4] |
| --- | --- | --- | --- | --- |
| CCN(CC)C(=O)/C(C#N)=C/c1cc(O)c(O)c([N+](=O)[O-])c1 [Entacapone] | -0.236 | -0.0896 | -0.445 | -0.0674 |
| N#Cc1ccc2[nH]c(O)c(-c3ccc(CN4CCOCC4)cn3)c2c1 | 0.0942 | -0.482 | -0.607 | -0.422 |

Following part:

| SMILES | OMR-Perf [1] | Prob-Test [2] | Prob-Naive [3] | Prob-Train [4] |
| --- | --- | --- | --- | --- |
| CC1CC(OC(=O)C(O)c2ccccc2)CC(C)(C)C1 (stereo not given) [Cyclandelate] | -0.115 | -0.49 | -1.51 | -1.55 |
| CC(C)(O)[C@H]1CC[C@@](C)([C@@H]2[C@@H](O)C[C@@]3(C)[C@@H]4C[C@H](O[C@@H]5O[C@H](CO)[C@@H](O)[C@H](O)[C@@H]5O)[C@H]5C(C)(C)[C@@H](O[C@@H]6OC[C@@H](O)[C@H](O)[C@H]6O)CC[C@@]56C[C@]46CC[C@]23C)O1 [Astragaloside A] | -0.851 | -0.377 | 0.173 | -0.136 |
| Cl.O=C1c2cccc3c2[C@H](CCC3)CN1[C@@H]1CN2CCC1CC2 [Palonosetron HCl] | 0.254 | -0.678 | 0.271 | 0.261 |
| CC1CCCC(C)N1NC(=O)c1ccc(Cl)c(S(N)(=O)=O)c1 (stereo not given) [Clopamide] | -0.927 | 0.222 | 0.0239 | 0.331 |
| CC(C)C[C@H](NC(=O)CNC(=O)c1cc(Cl)ccc1Cl)B1OC(=O)CC(CC(=O)O)(C(=O)O)O1 (stereo not given in full) | 0.187 | 0.762 | 0.121 | -0.0938 |
| CC1(C)CNc2cc(NC(=O)c3cccnc3NCc3ccncc3)ccc21.O=P(O)(O)O.O=P(O)(O)O [Motesanib Diphosphate (AMG-706)] | -0.26 | -0.293 | 0.568 | -0.808 |
| CN(C)c1ccc(C(=O)NCCCCCCC(=O)NO)cc1 | -0.205 | -0.315 | 0.587 | 0.151 |
| O=C1CCc2cc(OCCCCc3nnnn3C3CCCCC3)ccc2N1 [Cilostazol] | 0.574 | -0.531 | 0.302 | 0.194 |
| CCOc1ccccc1N/N=C1/C(=O)N(c2nc(-c3ccccc3)cs2)N=C1C | -0.498 | -0.116 | 0.0292 | -1.13 |
| O=C(NCC1CN(c2ccc(N3CCOCC3=O)cc2)C(=O)O1)c1ccc(Cl)s1 (stereo not given) [Rivaroxaban] | 0.393 | 0.285 | 0.584 | 0.0807 |
| Cc1[nH]c2ccccc2c1CCNCc1ccc(/C=C/C(=O)NO)cc1 [Panobinostat (LBH589)] | -0.241 | 0.188 | 0.0243 | -0.098 |
| CS(=O)(=O)O.O=C(Nc1cccc(Cl)c1)Nc1ncc(CCNc2ncnc3ccsc23)s1 [SNS-314 Mesylate] | -0.341 | 0.0641 | -0.432 | -0.957 |
| Cc1nc(NC(=O)N2CCC[C@H]2C(N)=O)sc1-c1csc(C(C)(C)C)n1 | 0.34 | 0.0951 | -0.0697 | -0.282 |
| CC(=O)N1c2ccc(-c3ccc(C(=O)O)cc3)cc2[C@H](Nc2ccc(Cl)cc2)C[C@@H]1C | 0.0683 | -0.0551 | -0.355 | -0.394 |
| COc1cc2c(cc1OC)-c1cc3ccc(OC)c(OC)c3c[n+]1CC2.[Cl-] [Palmatine chloride] | -0.411 | 0.385 | 0.208 | 0.391 |
| COc1cc([C@H]2c3cc4c(cc3[C@@H](O[C@@H]3O[C@@H]5CO[C@@H](C)O[C@H]5[C@H](O)[C@@H]3O)[C@H]3COC(=O)[C@H]23)OCO4)cc(OC)c1O [Etoposide] | 0.0931 | 0.0299 | -0.205 | 0.649 |
| C#Cc1cccc(Nc2ncnc3cc(OC)c(OCCCCCCC(=O)NO)cc23)c1 | -0.116 | -0.175 | -0.262 | 0.074 |
| CCCCCCCCCCCCCCCCO [1-Hexadecanol] | -0.401 | 0.143 | 0.585 | 1.2 |
| CCCOc1ccc(C(=O)OCCN(CC)CC)cc1N.Cl [Proparacaine HCl] | -0.159 | -0.189 | 0.42 | 0.307 |
| C[C@H](CCC(=O)O)[C@@H]1CC[C@H]2[C@@H]3C[C@H](O)[C@@H]4C[C@H](O)CC[C@]4(C)[C@@H]3CC[C@@]21C [Hyodeoxycholic acid (HDCA)] | -0.244 | 0.12 | 0.375 | 0.313 |
| C[C@H](N[C@@H](CCc1ccccc1)C(=O)O)C(=O)N1CCC[C@H]1C(=O)O.O.O [Enalaprilat Dihydrate] | 0.161 | -0.0161 | -0.29 | 0.086 |
| C[C@H](Nc1ncnc2[nH]cnc12)c1cc2cccc(Cl)c2c(=O)n1-c1ccccc1 | -0.106 | -0.128 | 0.538 | 0.248 |
| COc1ccccc1S(=O)(=O)Nc1ccc2c(c1)CN(C)C(=O)N2 | -0.421 | 0.294 | 0.233 | 0.174 |
| O=C1NC(=O)C(=Cc2ccc(-c3ccc(F)cc3)o2)S1 (stereo in doubt) | -0.879 | -1.42 | -0.76 | -0.886 |
| CCO.C[C@H]1c2cccc(O)c2C(=O)C2=C(O)[C@]3(O)C(=O)C(C(N)=O)=C(O)[C@@H](N(C)C)[C@@H]3[C@@H](O)[C@@H]21.C[C@H]1c2cccc(O)c2C(=O)C2=C(O)[C@]3(O)C(=O)C(C(N)=O)=C(O)[C@@H](N(C)C)[C@@H]3[C@@H](O)[C@@H]21.Cl.Cl.O [Doxycycline Hyclate] | -0.0143 | 0.342 | -0.0234 | 0.101 |
